Measured values taken from the supplement of paper PMC11348887.
Where a name gives a salt, the structure may show the parent alone. Some of the results follow. Most values lie at the level of the controls, where differences are scatter.

System: hPSC-derived cortical neurons (WA09)
Experiment: nucleus roundness z-score vs screen plate; higher = rounder nuclei (more mature)
Details: 5 µM; treatment: days 7-14 after plating, readout day 21

SMILES	nucleus roundness z-score
NC(=O)c1ccc(-c2nc(-c3ccccn3)c(-c3ccc4c(c3)OCO4)[nH]2)cc1	-3.34
Nc1ccn([C@@H]2O[C@H](CO)[C@@H](O)C2(F)F)c(=O)n1 [Gemcitabine]	1.76
CC[C@@H]1/C=C(\C)C[C@H](C)C[C@H](OC)[C@H]2O[C@@](O)(C(=O)C(=O)N3CCCC[C@H]3C(=O)O[C@H](/C(C)=C/[C@@H]3CC[C@H](Cl)[C@H](OC)C3)[C@H](C)[C@@H](O)CC1=O)[C@H](C)C[C@@H]2OC [Pimecrolimus]	-0.651
NCc1c[nH]c(=S)n1[C@@H]1CCc2c(F)cc(F)cc2C1 [(R)-Nepicastat HCl]	0.817

System: hPSC-derived cortical neurons (WA09)
Experiment: KCl-induced FOS+/EGR-1+ double-positive nuclei fraction z-score (KCl minus unstimulated); higher = stronger activity-induced IEG response
Details: 5 µM; treatment: days 7-14 after plating, readout day 21

SMILES	KCl-induced FOS+/EGR-1+ double-positive nuclei fraction z-score
CC(C)NC[C@H](O)COc1ccc(CCOCC2CC2)cc1 [Levobetaxolol HCl]	0.759
O=C(NC1CCN(CCCCC2(C(=O)NCC(F)(F)F)c3ccccc3-c3ccccc32)CC1)c1ccccc1-c1ccc(C(F)(F)F)cc1 [Lomitapide]	-0.983
COc1cc(C(C)=O)ccc1O [Apocynin]	0.117
c1ccc2c(Oc3nc(Nc4ccc(N5CCOCC5)cc4)c4ncn(C5CCCCC5)c4n3)cccc2c1 [Purmorphamine]	0.822
COc1cccc(Nc2c(C(N)=O)cnc3c(C)cc(S(=O)(=O)c4cccc(C(=O)N(C)C)c4)cc23)c1	0.931
Cc1ncc(-c2ccnc(Nc3ccc(S(C)(=O)=O)cc3)n2)n1C(C)C	-0.584
CCC(C)(Oc1ccc(C2(c3ccc(OC(C)(CC)C(=O)O)cc3)CCCCC2)cc1)C(=O)O (configuration not stated) [Clinofibrate]	0.37
C[C@H](CCC(=O)O)[C@H]1CC[C@H]2[C@@H]3C(=O)C[C@@H]4CC(=O)CC[C@]4(C)[C@H]3CC(=O)[C@]12C [Dehydrocholic acid]	0.0904
